Results are given in words; binding and its absence hold for the method and conditions named. For some assays here: Binding seen in cells or lysates may run through a third protein. Some entries that bind do so weakly or less than the wild type.

By UniProt entry, the sequences of proteins in these tests, tags left out.
UniProt Q96FW1: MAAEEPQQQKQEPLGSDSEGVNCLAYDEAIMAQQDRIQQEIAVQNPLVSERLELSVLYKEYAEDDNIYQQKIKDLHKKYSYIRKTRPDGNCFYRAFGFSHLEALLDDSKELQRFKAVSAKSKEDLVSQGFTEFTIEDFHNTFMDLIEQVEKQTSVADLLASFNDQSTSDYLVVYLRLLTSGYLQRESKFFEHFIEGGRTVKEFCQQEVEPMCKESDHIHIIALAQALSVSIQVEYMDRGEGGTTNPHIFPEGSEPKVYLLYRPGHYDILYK
UniProt P46937: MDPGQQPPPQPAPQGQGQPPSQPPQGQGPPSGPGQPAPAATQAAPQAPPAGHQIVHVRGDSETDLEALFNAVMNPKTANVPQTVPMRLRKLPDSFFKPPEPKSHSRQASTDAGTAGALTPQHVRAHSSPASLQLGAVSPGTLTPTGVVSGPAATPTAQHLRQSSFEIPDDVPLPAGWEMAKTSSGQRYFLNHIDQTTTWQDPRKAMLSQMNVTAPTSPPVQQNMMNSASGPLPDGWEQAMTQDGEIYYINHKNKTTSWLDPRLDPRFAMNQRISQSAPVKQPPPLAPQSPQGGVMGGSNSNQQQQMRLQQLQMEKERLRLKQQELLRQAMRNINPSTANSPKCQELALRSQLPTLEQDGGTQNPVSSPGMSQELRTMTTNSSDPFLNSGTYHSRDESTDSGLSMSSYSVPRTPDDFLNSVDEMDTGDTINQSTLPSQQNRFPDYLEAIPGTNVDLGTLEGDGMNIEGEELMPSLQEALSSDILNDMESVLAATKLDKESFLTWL

The target of experiment [1] is GST-OTUB1 (UniProt Q96FW1). Kind of experiment: pull-down; GST-agarose bead bound GST-OTUB1 or GST incubated with purified His-YAP; eluates analysed by western blot; both purified.
Experiment [2] deals with OTUB1-flag (UniProt Q96FW1). Description: co-IP; OTUB1-flag and YAP-myc (WT or truncated) co-transfected into HEK293T cells; IP with OTUB1 (Flag), protein A/G agarose beads, western blot. In general terms: A western blot detects proteins with antibodies after separation by electrophoresis.

For the substance His-YAP (from UniProt P46937 1-504), the binding entry in experiment [1] was “binds”.
As to YAP-myc (from UniProt P46937 1-504), the binding entry in experiment [2] is listed as “binds”.
